Reference: US11169156B2, “Long wavelength voltage sensitive dyes” (The Regents of the University of California, priority 2015, dated 2021)

How the values were obtained:
HEK cells = experiment: Epifluorescence imaging of dye staining and localization in HEK cells; format: cell-based, Human; conditions: HEK cells bathed in 1 μM dye, 631 nm illumination
rat hippocampal neurons = experiment: Cross-excitation in hippocampal neurons loaded with dye; format: cell-based

Structure (SMILES)	cellular fluorescence / localization (HEK cells)	fluorescence on 390 nm excitation relative to 631 nm excitation (rat hippocampal neurons; cellular membranes, 9.7 W/cm2, emission 680 nm)	fluorescence on 475 nm excitation relative to 631 nm excitation (rat hippocampal neurons; stained cells, 9.7 W/cm^2, emission 680 nm)
CN(C)c1ccc2c(c1)[Si](C)(C)C1=CC(=[N+](C)C)C=CC1=C2c1ccccc1S(=O)(=O)[O-] [BR, 2-(7-(Dimethylamino)-3-(dimethyliminio)-5,5-dimethyl-3,5-dihydrodibenzo[b,e]silin-10-yl) benzenesulfonate]	negligible cytosolic fluorescence; also recorded: negligible cellular fluorescence	–	–
COc1cc(N(C)C)ccc1/C=C/c1ccc(/C=C/c2ccc(C3=C4C=CC(=[N+](C)C)C=C4[Si](C)(C)c4cc(N(C)C)ccc43)c(S(=O)(=O)[O-])c2)cc1 [BeRST 1, 5-((E)-4-((E)-4-(Dimethylamino)-2-methoxystyryl)styryl)-2-(7-(dimethylamino)-3-(dimethyliminio)-5,5-dimethyl-3,5-dihydrodibenzo[b,e]silin-10-yl)benzenesulfonate]	localizes to cell membranes; also recorded: Clear membrane staining	approximately 47%	approximately 4%

Entries after “also recorded” stand apart in the source; their conditions may differ.
